Measurements reported in PubChem BioAssay AID1224826 (NIAID, 2016)

- Screen: 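Genes that change LPS-induced Tnf promoter activity in mouse macrophages when knocked down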 (primary screen)
- Cells: RAW264.7 G9 macrophages from mouse bearing reporters for p65 (GFP) and the Tnf promoter (mCherry)
- Knock-down reagent: siRNA pool against mouse genes, 100 nM
- Duration: 16 h of LPS stimulation, after 2 days of siRNA transfection
- Challenge: bacterial lipopolysaccharide (Salmonella minnesota R595), 10 ng/ml
- Read-out: 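Imaged Tnf reporter mCherry in nuclei, minus background, normalised per plate to the median and expressed as robust z-scores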
- Reading the numbers: Tnf reporter robust z-score: higher = stronger Tnf promoter reporter signal after LPS
- Call rule: 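a well counts as active at a score of -1.3 or below (Tlr4 knock-down control median) or above 3 (raised signal); controls and wells holding fewer than 50 cells are excluded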
- Meaning of the calls: active = Tnf reporter clearly lowered or raised; inactive = no clear change in Tnf reporter
Here is an unselected part of about 17,000 reagents tested. In the full data, about 1,110 (6.6%) got an active call. 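Active means lowered or raised reporter signal; replicate intensities are raw and not normalised per plate.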 Not all columns of the deposit are shown. No sequences are given here.

{"gene symbol": "Sucnr1 (GeneID 84112)", "Tnf reporter robust z-score": -0.64, "fewer than 50 cells in well": "enough cells in well", "Call": "inactive"}
{"gene symbol": "Gata5 (GeneID 14464)", "Tnf reporter robust z-score": -1.46, "fewer than 50 cells in well": "enough cells in well", "Call": "active"}
{"gene symbol": "Wdr20rt (GeneID 70948)", "Tnf reporter robust z-score": 1.87, "fewer than 50 cells in well": "enough cells in well", "Call": "inactive"}
{"gene symbol": "Rbm17 (GeneID 76938)", "Tnf reporter robust z-score": 1.09, "fewer than 50 cells in well": "enough cells in well", "Call": "inactive"}

2 entries from above, showing only “Tnf reporter robust z-score”.
Sucnr1 (GeneID 84112): -0.64
Gata5 (GeneID 14464): -1.46

The list goes on:
{"gene symbol": "Exoc8 (GeneID 102058)", "Tnf reporter robust z-score": -0.21, "fewer than 50 cells in well": "enough cells in well", "Call": "inactive"}
{"gene symbol": "Hnrnpa2b1 (GeneID 53379)", "Tnf reporter robust z-score": -0.27, "fewer than 50 cells in well": "enough cells in well", "Call": "inactive"}
{"gene symbol": "Cfap61 (GeneID 78774)", "Tnf reporter robust z-score": -0.26, "fewer than 50 cells in well": "enough cells in well", "Call": "inactive"}
{"gene symbol": "Psme2 (GeneID 19188)", "fewer than 50 cells in well": "fewer than 50 cells per well; well left out of calls", "Call": "inactive"}
{"gene symbol": "Rep15 (GeneID 66532)", "fewer than 50 cells in well": "fewer than 50 cells per well; well left out of calls", "Call": "inactive"}
{"gene symbol": "Wls (GeneID 68151)", "Tnf reporter robust z-score": -1.23, "fewer than 50 cells in well": "enough cells in well", "Call": "inactive"}
{"gene symbol": "Hoxc9 (GeneID 15427)", "Tnf reporter robust z-score": 1.09, "fewer than 50 cells in well": "enough cells in well", "Call": "inactive"}
{"gene symbol": "Il34 (GeneID 76527)", "Tnf reporter robust z-score": -0.86, "fewer than 50 cells in well": "enough cells in well", "Call": "inactive"}
{"gene symbol": "Atrn (GeneID 11990)", "Tnf reporter robust z-score": -0.94, "fewer than 50 cells in well": "enough cells in well", "Call": "inactive"}
{"gene symbol": "Riiad1 (GeneID 66353)", "fewer than 50 cells in well": "fewer than 50 cells per well; well left out of calls", "Call": "inactive"}
